Laboratory results published in patent US5932772A, “Separation processes” (Union Carbide Chemicals & Plastics Technology Corporation, priority 1998, dated 1999).

Tests used:
[1] = Rhodium content of nonpolar and polar phases after hydroformylation and phase separation
[2] = Hydroformylation of olefin with rhodium-ligand catalyst (initial rate, N/I)
[3] = acetonitrile, 1-dodecene, 90° C, after hexane (Table E)
[4] = acetonitrile, 1-dodecene, 90° C (Table E)
[5] = DMSO, 1-decene, 90° C, after hexane
[6] = acetonitrile, 1-dodecene, 95° C, 10 psi hydrogen + 60 psi syn gas
[7] = acetonitrile, 1-dodecene, 100° C, 20 psi hydrogen + 40 psi syn gas
[8] = DMF, 1-tetradecene, 100° C, after hexane
[9] = 3-methyl-2-oxazolidinone, 1-dodecene, 90° C
[10] = 3-methyl-2-oxazolidinone, 1-hexadecene, 90° C, after hexane
[11] = DMF, 1-tetradecene, 90° C, after hexane
[12] = DMSO, 1-tetradecene, 90° C, after hexane
[13] = acetonitrile, 1-dodecene, 90° C (Table F)
[14] = acetonitrile, 1-dodecene, 100° C, 80 psi 1:1 syn gas
[15] = acetonitrile, 1-hexadecene, 90° C
[16] = acetonitrile, 1-tetradecene, 90° C (Table F)
[17] = acetonitrile, 1-tetradecene, 90° C, after hexane
[18] = adiponitrile, 1-dodecene, 90° C, after hexane
[19] = epsilon caprolactone, 1-dodecene, 90° C
[20] = sulfolane, 1-hexadecene, 90° C, after hexane
[21] = 3-methyl-2-oxazolidinone, 1-hexadecene, 90° C
[22] = DMF, 1-tetradecene, 90° C, 5 psi pressure drop
[23] = acetonitrile, 1-tetradecene, 90° C (Table E)
[24] = adiponitrile, 1-dodecene, 90° C
[25] = adiponitrile, 1-dodecene, 90° C (Table G)

SMILES: N#CCCP(CCC#N)CCC#N [Ligand F]
- Rh in nonpolar phase [1, 3]: 3,000 ppb
- Initial Rate [2, 4]: 24 s
- N/I [2, 4]: 3

SMILES: O=P(CP(c1ccccc1)c1ccccc1)(c1ccccc1)c1ccccc1 [Ligand E]
- Rh in nonpolar phase [1, 5]: 763 ppb
- Rh in the polar phase [1, 5]: 544 ppm
- Initial Rate ([2]; DMSO, 1-decene, 90° C): 33 s
- N/I in the nonpolar phase ([2]; DMSO, 1-decene, 90° C): 2.5
- N/I in the polar phase ([2]; DMSO, 1-decene, 90° C): 2.5

SMILES: N#Cc1cccc(P(c2cccc(C#N)c2)c2cccc(C#N)c2)c1 [Ligand B]
- Rh in nonpolar phase [1, 3]: 425 ppb
- Rh in the polar phase [1, 3]: 273 ppm
- Rh in nonpolar phase [1, 6]: 474 ppb
- Rh in the polar phase [1, 6]: 345 ppm
- Rh in nonpolar phase [1, 7]: 134 ppb
- Rh in the polar phase [1, 7]: 252 ppm
- Initial Rate [2, 4]: 30 s
- N/I [2, 4]: 8
- Initial Rate [2, 6]: 55 s
- N/I [2, 6]: 10.5
- Initial Rate [2, 7]: 95 s
- N/I [2, 7]: 8

SMILES: O=P(CCP(c1ccccc1)c1ccccc1)(c1ccccc1)c1ccccc1 [Ligand D]
- Rh in nonpolar phase [1, 8]: 759 ppb
- Rh in the polar phase [1, 8]: 320 ppm
- Initial Rate ([2]; DMF, 1-tetradecene, 100° C): 45 s
- N/I ([2]; DMF, 1-tetradecene, 100° C): 5.5

SMILES: N#Cc1ccc(P(c2ccc(C#N)cc2)c2ccc(C#N)cc2)cc1 [Ligand A]
- Rhodium in the polar phase [1, 9]: 306 ppm
- Rh in product phase ([1]; 3-methyl-2-oxazolidinone, 1-dodecene, 90° C, ICP): 6,000 ppb
- Rh in nonpolar phase [1, 10]: 39 ppb
- Rh in the polar phase [1, 10]: 324 ppm
- Rh in non-polar phase after 3 extractions with acetonitrile ([1]; DMF, 1-dodecene, 90° C): 55 ppb
- Rhodium ([1]; DMF, 1-dodecene, 90° C): 390 ppm
- Rh in nonpolar phase [1, 11]: 241 ppb
- Rh in the polar phase [1, 11]: 385 ppm
- Rh in product phase ([1]; DMSO, 1-dodecene, 90° C, ICP): 7,000 ppb
- Rh in nonpolar phase [1, 12]: 86 ppb
- Rh in the polar phase [1, 12]: 341 ppm
- Rh in non-polar phase after 3 extractions with acetonitrile ([1]; acetonitrile, 1-decene, 90° C): 24 ppb
- Rh in non-polar phase after 3 extractions with acetonitrile [1, 13]: 287 ppb
- Rhodium [1, 13]: 311 ppm
- Rh in nonpolar phase [1, 6]: 164 ppb
- Rh in the polar phase [1, 6]: 321 ppm
- Rh in nonpolar phase [1, 7]: 277 ppb
- Rh in the polar phase [1, 7]: 347 ppm
- Rh in nonpolar phase [1, 14]: 359 ppb
- Rh in the polar phase [1, 14]: 344 ppm
- Rh in non-polar phase after 3 extractions with acetonitrile [1, 15]: 427 ppb
- Rhodium [1, 15]: 343 ppm
- Rh in non-polar phase after 3 extractions with acetonitrile [1, 16]: 158 ppb
- Rhodium [1, 16]: 324 ppm
- Rh in nonpolar phase [1, 17]: 404 ppb
- Rh in the polar phase [1, 17]: 214 ppm
- Rh in product phase ([1]; adiponitrile, 1-dodecene, 90° C, ICP (Table G)): 9,000 ppb
- Rh in nonpolar phase [1, 18]: 329 ppb
- Rh in the polar phase [1, 18]: 343 ppm
- Rh in non-polar phase after 3 extractions with acetonitrile [1, 19]: 114 ppb
- Rh in nonpolar phase [1, 20]: 494 ppb
- Rh in the polar phase [1, 20]: 355 ppm
- Initial Rate [2, 9]: 140 s
- N/I in the nonpolar phase [2, 9]: 7.7
- N/I in the polar phase [2, 9]: 7.1
- Initial Rate [2, 21]: 390 s
- N/I in the nonpolar phase [2, 21]: 8
- N/I in the polar phase [2, 21]: 19
- Initial Rate ([2]; DMF, 1-dodecene, 90° C): 48 s
- N/I ([2]; DMF, 1-dodecene, 90° C): 6.4
- N/I ([2]; DMF, 1-tetradecene, 90° C): 7.5
- Initial Rate [2, 22]: 39 s
- Initial Rate ([2]; DMSO, 1-dodecene, 90° C): 140 s
- N/I in the nonpolar phase ([2]; DMSO, 1-dodecene, 90° C): 7.9
- N/I in the polar phase ([2]; DMSO, 1-dodecene, 90° C): 7.3
- Initial Rate ([2]; DMSO, 1-tetradecene, 90° C): 270 s
- N/I in the polar phase ([2]; DMSO, 1-tetradecene, 90° C): 20
- N/I, first value of the pair (no nonpolar-phase mark) ([2]; DMSO, 1-tetradecene, 90° C): 8
- Initial Rate ([2]; acetonitrile, 1-decene, 90° C): 39 s
- N/I ([2]; acetonitrile, 1-decene, 90° C): 7.7
- Initial Rate [2, 13]: 51 s
- N/I [2, 13]: 7.5
- Initial Rate [2, 6]: 55 s
- N/I [2, 6]: 15
- Initial Rate [2, 7]: 120 s
- N/I [2, 7]: 14
- Initial Rate [2, 14]: 60 s
- N/I [2, 14]: 10
- Initial Rate [2, 15]: 77 s
- N/I [2, 15]: 7.8
- Initial Rate [2, 23]: 1600 s
- N/I [2, 23]: 8.6
- Initial Rate [2, 16]: 51 s
- N/I [2, 16]: 7.4
- Initial Rate [2, 24]: 950 s
- N/I in the nonpolar phase [2, 24]: 15
- N/I in the polar phase [2, 24]: 36
- Initial Rate [2, 25]: 260 s
- N/I in the nonpolar phase [2, 25]: 10.9
- N/I in the polar phase [2, 25]: 11.7
- Initial Rate [2, 19]: 51 s
- N/I [2, 19]: 6.6
- Initial Rate ([2]; sulfolane, 1-hexadecene, 90° C): 260 s
- N/I in the nonpolar phase ([2]; sulfolane, 1-hexadecene, 90° C): 14
- N/I in the polar phase ([2]; sulfolane, 1-hexadecene, 90° C): 11

SMILES: COc1cccc(P(c2cccc(OC)c2)c2cccc(OC)c2)c1 [Ligand H]
- Rh in nonpolar phase [1, 3]: 20,000 ppb
- Rh in the polar phase [1, 3]: 226 ppm
- Initial Rate [2, 4]: 20 s
- N/I [2, 4]: 5

SMILES: c1ccc(P(c2ccccc2)C2CCCCC2)cc1 [CHDPP, cyclohexyldiphenylphosphine, reference compound]
- Rh in nonpolar phase [1, 11]: 79,000 ppb
- Rh in the polar phase [1, 11]: 226 ppm
- N/I ([2]; DMF, 1-tetradecene, 90° C): 3
- Initial Rate [2, 22]: 23 s

SMILES: CC1(C)c2cccc(P(c3cccc(C#N)c3)c3cccc(C#N)c3)c2Oc2c(P(c3cccc(C#N)c3)c3cccc(C#N)c3)cccc21 [Ligand C]
- Rh in non-polar phase after 3 extractions with acetonitrile [1, 13]: 1,200 ppb
- Rhodium [1, 13]: 300 ppm
- Initial Rate [2, 13]: 320 s
- N/I [2, 13]: 48

SMILES: c1ccc(P(c2ccccc2)c2ccccc2)cc1 [TPP, triphenylphosphine, reference compound]
- Rh in nonpolar phase [1, 12]: 44,000 ppb
- Rh in the polar phase [1, 12]: 220 ppm
- Rh in nonpolar phase [1, 3]: 75,000 ppb
- Initial Rate ([2]; DMSO, 1-tetradecene, 90° C): 20 s
- N/I in the polar phase ([2]; DMSO, 1-tetradecene, 90° C): 7
- N/I, first value of the pair (no nonpolar-phase mark) ([2]; DMSO, 1-tetradecene, 90° C): 7
- Initial Rate [2, 4]: 14 s
- N/I [2, 4]: 5

SMILES: COc1ccc(P(c2ccc(OC)cc2)c2ccc(OC)cc2)cc1 [Ligand G]
- Rh in nonpolar phase [1, 3]: 6,000 ppb
- Rh in the polar phase [1, 3]: 236 ppm
- Initial Rate [2, 4]: 420 s
- N/I [2, 4]: 4.4
